For five molecules, binding results are on record in paper PMC7594058.

Sequences of proteins named here, by UniProt entry; tags and fusion partners are left off.
UniProt P03083: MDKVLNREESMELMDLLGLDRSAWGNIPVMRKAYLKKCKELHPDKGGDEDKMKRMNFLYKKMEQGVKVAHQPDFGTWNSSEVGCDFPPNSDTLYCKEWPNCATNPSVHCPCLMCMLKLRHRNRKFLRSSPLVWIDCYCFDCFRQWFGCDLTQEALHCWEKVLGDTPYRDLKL
UniProt P03072: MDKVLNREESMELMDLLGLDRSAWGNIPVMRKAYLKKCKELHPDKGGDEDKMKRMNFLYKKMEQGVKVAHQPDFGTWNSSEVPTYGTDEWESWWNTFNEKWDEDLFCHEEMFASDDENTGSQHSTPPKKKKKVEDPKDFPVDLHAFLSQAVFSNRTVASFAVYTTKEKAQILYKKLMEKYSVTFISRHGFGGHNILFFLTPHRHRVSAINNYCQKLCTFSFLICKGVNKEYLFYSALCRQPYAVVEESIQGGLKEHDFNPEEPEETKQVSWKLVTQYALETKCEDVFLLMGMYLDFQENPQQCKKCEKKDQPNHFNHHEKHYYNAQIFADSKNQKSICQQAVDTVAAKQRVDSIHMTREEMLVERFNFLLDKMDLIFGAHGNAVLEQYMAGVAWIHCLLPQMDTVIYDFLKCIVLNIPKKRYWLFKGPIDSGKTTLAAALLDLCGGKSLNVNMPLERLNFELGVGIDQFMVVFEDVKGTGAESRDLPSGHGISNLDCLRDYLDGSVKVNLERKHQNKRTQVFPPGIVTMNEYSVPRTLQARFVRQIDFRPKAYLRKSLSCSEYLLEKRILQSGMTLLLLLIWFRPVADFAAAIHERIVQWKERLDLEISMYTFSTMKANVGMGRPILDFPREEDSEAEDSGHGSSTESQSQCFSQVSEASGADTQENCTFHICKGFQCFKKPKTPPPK

No constants are given. Whether binding was seen depends on the method and setting. In cells and extracts the contact can be indirect. A yes stands for co-enrichment or nearness to the bait. Other partners may have been found.

Assay [1] addresses T7-2xStrep-JCV Sm t-Ag (JC virus (JCV)) (UniProt P03083). Kind of assay: affinity purification with mass spectrometry.
Assay [2] concerns the target T7-2xStrep-JCV LT-Ag (JC virus (JCV)) (UniProt P03072). The assay is described as follows: affinity purification with mass spectrometry.

B1: Splicing factor 1, isoform CRA_d (protein, UniProt Q15637 1-639)
chain: MATGANATPLDFPSKKRKRSRWNQDTMEQKTVIPGMPTVIPPGLTREQERAYIVQLQIEDLTRKLRTGDLGIPPNPEDRSPSPEPIYNSEGKRLNTREFRTRKKLEEERHNLITEMVALNPDFKPPADYKPPATRVSDKVMIPQDEYPEINFVGLLIGPRGNTLKNIEKECNAKIMIRGKGSVKEGKVGRKDGQMLPGEDEPLHALVTANTMENVKKAVEQIRNILKQGIETPEDQNDLRKMQLRELARLNGTLREDDNRILRPWQSSETRSITNTTVCTKCGGAGHIASDCKFQRPGDPQSAQDKARMDKEYLSLMAELGEAPVPASVGSTSGPATTPLASAPRPAAPANNPPPPSLMSTTQSRPPWMNSGPSESRPYHGMHGGGPGGPGGGPHSFPHPLPSLTGGHGGHPMQHNPNGPPPPWMQPPPPPMNQGPHPPGHHGPPPMDQYLGSTPVGSGVYRLHQGKGMMPPPPMGMMPPPPPPPSGQPPPPPSGPLPPWQQQQQQPPPPPPPSSSMASSTPLPWQQNTTTTTTSAGTGSIPPWQQQQAAAAASPGAPQMQGNPTMVPLPPGVQPPLPPGAPPPPPPPPPGSAGMMYAPPPPPPPPMDPSNFVTMMGMGVAGMPPFGMPPAPPPPPPQN
In the case of B1, the binding result in assay [1] and in assay [2] was “binds” throughout.

B2: Ribonucleoprotein PTB-binding 1 (protein, UniProt Q8IY67 1-606)
chain: MAADVSVTHRPPLSPKSGAEVEAGDAAERRAPEEELPPLDPEEIRKRLEHTERQFRNRRKILIRGLPGDVTNQEVHDLLSDYELKYCFVDKYKGTAFVTLLNGEQAEAAINAFHQSRLRERELSVQLQPTDALLCVANLPPSLTQQQFEELVRPFGSLERCFLVYSERTGQSKGYGFAEYMKKDSAARAKSDLLGKPLGPRTLYVHWTDAGQLTPALLHSRCLCVDRLPPGFNDVDALCRALSAVHSPTFCQLACGQDGQLKGFAVLEYETAEMAEEAQQQADGLSLGGSHLRVSFCAPGPPGRSMLAALIAAQATALNRGKGLLPEPNILQLLNNLGPSASLQLLLNPLLHGSAGGKQGLLGAPPAMPLLNGPALSTALLQLALQTQGQKKPGILGDSPLGALQPGAQPANPLLGELPAGGGLPPELPPRRGKPPPLLPSVLGPAGGDREALGLGPPAAQLTPPPAPVGLRGSGLRGPLSHFYSGSPTSYFTSGLQAGLKQSHLSKAIGSSPLGSGEGLLGLSPGPNGHSHLLKVRAGGGDMQGWEAPAPQRPLTRPALPSVSRPHWAARNAALPTCCPRPSPAQKAAMWASTPRASAATTRTPT
As for B2, the binding result in assay [1] and in assay [2] was “binds” in each case.

B3: Phosphate carrier protein, mitochondrial (protein, UniProt Q00325 50-362)
chain: AVEEQYSCDYGSGRFFILCGLGGIISCGTTHTALVPLDLVKCRMQVDPQKYKGIFNGFSVTLKEDGVRGLAKGWAPTFLGYSMQGLCKFGFYEVFKVLYSNMLGEENTYLWRTSLYLAASASAEFFADIALAPMEAAKVRIQTQPGYANTLRDAAPKMYKEEGLKAFYKGVAPLWMRQIPYTMMKFACFERTVEALYKFVVPKPRSECSKPEQLVVTFVAGYIAGVFCAIVSHPADSVVSVLNKEKGSSASLVLKRLGFKGVWKGLFARIIMIGTLTALQWFIYDSVKVYFRLPRPPPPEMPESLKKKLGLTQ
As for B3, the binding entry in assay [1] and in assay [2] was “binds” each time.

B4: THO complex subunit 3 (protein, UniProt Q96J01 1-351)
chain: MAVPAAAMGPSALGQSGPGSMAPWCSVSSGPSRYVLGMQELFRGHSKTREFLAHSAKVHSVAWSCDGRRLASGSFDKTASVFLLEKDRLVKENNYRGHGDSVDQLCWHPSNPDLFVTASGDKTIRIWDVRTTKCIATVNTKGENINICWSPDGQTIAVGNKDDVVTFIDAKTHRSKAEEQFKFEVNEISWNNDNNMFFLTNGNGCINILSYPELKPVQSINAHPSNCICIKFDPMGKYFATGSADALVSLWDVDELVCVRCFSRLDWPVRTLSFSHDGKMLASASEDHFIDIAEVETGDKLWEVQCESPTFTVAWHPKRPLLAFACDDKDGKYDSSREAGTVKLFGLPNDS
For the molecule B4, the binding entry in assay [1] and in assay [2] was “binds” each time.

B5: Isoform 2 of Caprin-1 (protein, UniProt Q14444-2 1-694)
chain: MPSATSHSGSGSKSSGPPPPSGSSGSEAAAGAGAAAPASQHPATGTGAVQTEAMKQILGVIDKKLRNLEKKKGKLDDYQERMNKGERLNQDQLDAVSKYQEVTNNLEFAKELQRSFMALSQDIQKTIKKTARREQLMREEAEQKRLKTVLELQYVLDKLGDDEVRTDLKQGLNGVPILSEEELSLLDEFYKLVDPERDMSLRLNEQYEHASIHLWDLLEGKEKPVCGTTYKVLKEIVERVFQSNYFDSTHNHQNGLCEEEEAASAPAVEDQVPEAEPEPAEEYTEQSEVESTEYVNRQFMAETQFTSGEKEQVDEWTVETVEVVNSLQQQPQAASPSVPEPHSLTPVAQADPLVRRQRVQDLMAQMQGPYNFIQDSMLDFENQTLDPAIVSAQPMNPTQNMDMPQLVCPPVHSESRLAQPNQVPVQPEATQVPLVSSTSEGYTASQPLYQPSHATEQRPQKEPIDQIQATISLNTDQTTASSSLPAASQPQVFQAGTSKPLHSSGINVNAAPFQSMQTVFNMNAPVPPVNEPETLKQQNQYQASYNQSFSSQPHQVEQTELQQEQLQTVVGTYHGSPDQSHQVTGNHQQPPQQNTGFPRSNQPYYNSRGVSRGGSRGARGLMNGYRGPANGFRGGYDGYRPSFSNTPNSGYTQSQFSAPRDYSGYQRDGYQQNFKRGSGQSGPRGAPRGNILWW
Consider B5, for which the binding entry in assay [1] and in assay [2] was “binds” throughout.
